Measured values taken from US8242251B2, “Unsymmetrical cyanine dimer compounds and their application” (Life Technologies Corporation, priority 2003, dated 2012).
Some compounds share one range, which may span the group rather than tell each member.

Tested on: RNA versus DNA
Experiment: Screening of fluorescence properties and relative fluorescence enhancement with RNA versus DNA (Table 3)
Format: binding
Conditions: Complex with nucleic acid

Structure (SMILES)	Excitation/Emission (nm): emission	Excitation/Emission (nm): excitation
C[n+]1c(/C=C2\C=C(N3CCN(C4=C/C(=C\c5sc6ccccc6[n+]5C)c5ccccc5N4c4ccccc4)CC3)N(c3ccccc3)c3ccccc32)sc2ccccc21.[Cl-].[Cl-] [Compound 6]	M (M = excitation of about 480-510 nm and emission of about 510-540 nm.)	M (M = excitation of about 480-510 nm and emission of about 510-540 nm.)
C[n+]1c(/C=C/C=C2/C=CN(c3ccccc3)C(N3CCN(C4=C/C(=C\C=C\c5sc6ccccc6[n+]5C)C=CN4c4ccccc4)CC3)=C2)sc2ccccc21 [Compound 18]	620 nm	570 nm
CN1/C(=C\c2ccn(-c3ccccc3)/c(=N\N3CCN(/N=c4/cc(/C=C5/Sc6ccccc6N5C)c5ccccc5n4-c4ccccc4)CC3)c2)Sc2ccccc21 [Compound 25]	M (M = excitation of about 480-510 nm and emission of about 510-540 nm.)	M (M = excitation of about 480-510 nm and emission of about 510-540 nm.)
C[n+]1c(/C=C2\C=C(N3CCNCCN(C4=C/C(=C\c5sc6ccccc6[n+]5C)c5ccccc5N4c4ccccc4)CCNCC3)N(c3ccccc3)c3ccccc32)sc2ccccc21.[Cl-].[Cl-] [Compound 15]	M (M = excitation of about 480-510 nm and emission of about 510-540 nm.)	M (M = excitation of about 480-510 nm and emission of about 510-540 nm.)
C[n+]1c(/C=C2\C=C(SCCCCCCCCCSC3=C/C(=C\c4sc5ccccc5[n+]4C)c4ccccc4N3c3ccccc3)N(c3ccccc3)c3ccccc32)sc2ccccc21 [Compound 1]	M (M = excitation of about 480-510 nm and emission of about 510-540 nm.)	M (M = excitation of about 480-510 nm and emission of about 510-540 nm.)
CN1/C(=C\c2c/c(=N/N3CCN(/N=c4/cc(/C=C5/Sc6ccccc6N5C)c5ccccc5n4-c4ccccc4)CC3)n(-c3ccccc3)c3ccccc23)Sc2ccccc21 [Compound 9]	M (M = excitation of about 480-510 nm and emission of about 510-540 nm.)	M (M = excitation of about 480-510 nm and emission of about 510-540 nm.)
C[n+]1c(/C=C2\C=C(N3CCN(C4=C/C(=C\c5oc6ccccc6[n+]5C)c5ccccc5N4c4ccccc4)CC3)N(c3ccccc3)c3ccccc32)oc2ccccc21.[Cl-].[Cl-] [Compound 20]	M (M = excitation of about 480-510 nm and emission of about 510-540 nm.)	M (M = excitation of about 480-510 nm and emission of about 510-540 nm.)
C[n+]1c(/C=C2\C=C(N(CCC[N+](C)(C)C)CCC[N+](C)(C)C)N(CCCCCCCCCCN3C(N(CCC[N+](C)(C)C)CCC[N+](C)(C)C)=C/C(=C\c4sc5ccccc5[n+]4C)c4ccccc43)c3ccccc32)sc2ccccc21.Cl.Cl [Compound 13]	M (M = excitation of about 480-510 nm and emission of about 510-540 nm.)	M (M = excitation of about 480-510 nm and emission of about 510-540 nm.)
CN1/C(=C\c2c/c(=N/C3CCC(/N=c4/cc(/C=C5/Sc6ccccc6N5C)c5ccccc5n4-c4ccccc4)CC3)n(-c3ccccc3)c3ccccc23)Sc2ccccc21 (stereo not shown) [Compound 8]	M (M = excitation of about 480-510 nm and emission of about 510-540 nm.)	M (M = excitation of about 480-510 nm and emission of about 510-540 nm.)
COc1ccc2c(c1)N(c1ccccc1)C(N1CCN(C3=C/C(=C\c4sc5ccccc5[n+]4C)c4ccc(OC)cc4N3c3ccccc3)CC1)=C/C2=C\c1sc2ccccc2[n+]1C.[I-].[I-] [Compound 19]	M (M = excitation of about 480-510 nm and emission of about 510-540 nm.)	M (M = excitation of about 480-510 nm and emission of about 510-540 nm.)
C[n+]1c(/C=C2\C=C(Sc3nnc(SC4=C/C(=C\c5sc6ccccc6[n+]5C)c5ccccc5N4c4ccccc4)s3)N(c3ccccc3)c3ccccc32)sc2ccccc21.[Cl-].[Cl-] [Compound 7]	M (M = excitation of about 480-510 nm and emission of about 510-540 nm.)	M (M = excitation of about 480-510 nm and emission of about 510-540 nm.)
